Binding data for one molecule are collected here from patent publication US20240293518A1 (HEALTH RESEARCH, published 2024).

These are yes or no findings as the source states them, for the method shown. In cells and extracts the contact can be indirect. Some results given as binding are weak or reduced against the parent protein; the word gives no strength. Sequences can lack the tags named with a protein.

In this experiment the target is ErbB2/ECD-Fc, recombinant chimera of human ErbB2 ECD (Thr23-Thr652) and the Fc fragment of human IgG1 (human) (UniProt P04626). The experiment is described as follows: pull-down with protein G-sepharose, SDS-PAGE, silver stain; PEPD 0.04, 0.2 or 1 µM with 0.04 µM ErbB2/ECD-Fc.

B1: Recombinant human PEPD (peptidase D, prolidase), wild type, 6×His tagged at the carboxy terminus (ligand)
chain: MAAATGPSFWLGNETLKVPLALFALNRQRLCERLRKNPAVQAGSIVVLQGGEETQRYCTDTGVLFLQESFFHWAFGVTEPGCYGVIDVDTGKSTLFVPRLPASHATWMGKIHSKEHFKEKYAVDDVQYVDEIASVLTSQKPSVLLTLRGVNTDSGSVCREASFDGISKFEVNNTILHPEIVESRVFKTDMELEVLRYTNKISSEAHREVMKAVKVGMKEYGLESLFEHYCYSRGGMRHSSYTCICGSGENSAVLHYGHAGAPNDRTIQNGDMCLFDMGGEYYSVASDITCSFPRNGKFTADQKAVYEAVLLSSRAVMGAMKPGDWWPDIDRLADRIHLEELAHMGILSGSVDAMVQAHLGAVFMPHGLGHFLGIDVHDVGGYPEGVERIDEPGLRSLRTARHLQPGMVLTVEPGIYFIDHLLDEALADPARASFLNREVLQRFRGFGGVRIEEDVVVIDSGIELLTCVPRTVEEIEACMAGCDKAFTPFSGPKHHHHHH
notes: Made in bacteria (pBAD/Thio-TOPO, without the N-terminal Thio) and purified on nickel; also called WT-PEPD; rhPEPD
Take B1: the binding entry is “binds”.
